The experiment relates to SD rats with a high cholesterol diet (hyperlipidemia model). Put plainly: Measurement of blood lipid in high cholesterol diet SD rats. It is filed as in vivo, SD rats (Sprague-Dawley rats).
The mark [1] stands for this setting: plasma, oral, Ex. compositions 1,000 mg/kg, atorvastatin 5 mg/kg.

Results on 1 molecule are retold here after patent US10543246B2, “Composition for preventing or treating hyperlipidemia” (HAWON PHARM. CORPORATION, priority 2014, dated 2020).

SMILES strings stand for the structures.

Turning to `CC(C)c1c(C(=O)Nc2ccccc2)c(-c2ccccc2)c(-c2ccc(F)cc2)n1CC[C@@H](O)C[C@@H](O)CC(=O)O` [Atorvastatin], for the setting “[(TC)-(HDL-c)]/(HDL-c), Ex. compositions 1000 mg/kg/day, atorvastatin 5 mg/kg/day”, the “Atherogenic Index (AI)” value is given as 1.6. Under setting [1], the “HDL-cholesterol concentration in blood” value amounted to 53 mg/dL, the “LDL-cholesterol concentration in blood” value was found to be 48 mg/dL, the “Total cholesterol concentration in blood” value is recorded as 147 mg/dL and the “Triglyceride concentration in blood” value was determined as 219 mg/dL.
